# Record: PubChem BioAssay AID504774 (Drosophila RNAi Screening Center, 2011)
# Purpose: 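Knock-downs that shift viability of MMS-exposed cells relative to untreated ones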 (primary screen)
# Cells: Drosophila Kc167 cells
# Reagents: long dsRNA against Drosophila genes, about 0.25 µg dsRNA per well
# Duration: about 6 days: 3 days knock-down, then 3 days with or without MMS
# Conditions: methyl methanesulphonate 0.004% (w/v) for 3 days after knock-down
# Detection: 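Viability in wells given MMS, read as ATP luminescence, normalised by quantiles plate by plate and averaged across replicates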
# Direction: mean viability with MMS and viability with MMS: higher = more surviving cells after MMS
# In all, the deposit lists about 23,000 reagents; below is a random part of those that have a named target and a result. 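Values are quantile-normalised luminescence on an arbitrary scale; higher means more cells surviving MMS.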
gene,amplicon,mean viability with MMS,"viability with MMS, replicate 1","viability with MMS, replicate 2"
Cyp6t2Psi,DRSC01840,3.54e6,4.02e6,3.99e6
Prosbeta2R2,DRSC12193,3.61e6,4.05e6,4.13e6
CG11596,DRSC18540,3.49e6,4.06e6,3.87e6
arr,DRSC07451,3.66e6,4.12e6,4.15e6
Ugt37A3,DRSC15937,3.44e6,3.94e6,3.89e6
CG12320,DRSC14498,3.70e6,4.34e6,4.07e6
Sas10,DRSC18355,3.47e6,3.83e6,4.04e6
CG30284,DRSC22150,3.27e6,3.85e6,3.78e6
Ssk,DRSC10756,3.67e6,4.14e6,4.14e6
Spn42Da,DRSC05025,3.65e6,4.13e6,4.07e6
CG31705,DRSC01991,3.22e6,3.88e6,3.35e6
CG14000,DRSC02332,3.57e6,4.17e6,3.92e6
Mtap,DRSC06890,3.71e6,4.12e6,4.28e6
CG3434,DRSC10365,3.50e6,3.91e6,4.01e6
Brd8,DRSC14866,3.89e6,4.56e6,4.37e6
CG2104,DRSC12304,3.60e6,4.14e6,4.03e6
sif,DRSC08759,3.61e6,4.12e6,4.07e6
sif,DRSC11395,3.50e6,4.18e6,3.77e6
sif,DRSC22065,3.65e6,4.20e6,4.01e6
sif,DRSC22828,3.46e6,4.07e6,3.83e6
CG11594,DRSC08207,3.73e6,4.14e6,4.33e6
CG32554,DRSC22713,3.49e6,3.97e6,3.97e6
CG1024,DRSC12496,3.48e6,4.02e6,3.89e6
CG2218,DRSC15428,3.64e6,4.10e6,4.13e6
VepD,DRSC22318,3.49e6,3.92e6,4.01e6
CG10081,DRSC05962,3.49e6,3.82e6,4.08e6
CG34434,DRSC18134,3.58e6,3.93e6,4.19e6
CG4734,DRSC06885,3.66e6,4.22e6,4.05e6
CG4734,DRSC22072,3.58e6,4.10e6,3.99e6

Individual results from above.
Value of CG14000 [DRSC02332] in “viability with MMS, replicate 2”: 3.92e6
Value for CG1024 [DRSC12496] under “viability with MMS, replicate 1”: 4.02e6
For “viability with MMS, replicate 2”, CG30284 [DRSC22150] shows 3.78e6
Value for CG10081 [DRSC05962] in “viability with MMS, replicate 2”: 4.08e6
